Some of the results follow.
Experiments:
Test in all cases: log2 fold change, soluble protein after heating vs DMSO (PISA); higher = thermal stabilisation; K562 lysate, 10 uM; active = over 0.2 and 3.5 SD of the protein, either way, in both replicates (recomputed)
[1] = compound: CS(=O)(=O)CCNCc1ccc(-c2ccc3ncnc(Nc4ccc(OCc5cccc(F)c5)c(Cl)c4)c3c2)o1 [lapatinib]
Summary of the method: (§1)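 Following dounce homogenisation of K562 pellets in PBS pH 7.4 with 1 mM MgCl2, crude extract at 1 mg/mL protein was incubated for 30 min with 10 μM compound. Aliquots were then heated for 3 min over 48°C-58°C and pooled, NP-40 was added to 0.5% at 4°C, and soluble protein was recovered as the supernatant at 21,000xg for 90 min. Channel-sum-equalised TMTpro 16plex LC-MS/MS quantified this protein. Each value, from duplicates, is a log-two fold change in thermal stability relative to solvent controls.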

Amino acid sequences for entries named in this document (tags omitted). A change or cut given only in a name is not applied to a line headed by its entry.
UniProt O00584, whole entry, looked up: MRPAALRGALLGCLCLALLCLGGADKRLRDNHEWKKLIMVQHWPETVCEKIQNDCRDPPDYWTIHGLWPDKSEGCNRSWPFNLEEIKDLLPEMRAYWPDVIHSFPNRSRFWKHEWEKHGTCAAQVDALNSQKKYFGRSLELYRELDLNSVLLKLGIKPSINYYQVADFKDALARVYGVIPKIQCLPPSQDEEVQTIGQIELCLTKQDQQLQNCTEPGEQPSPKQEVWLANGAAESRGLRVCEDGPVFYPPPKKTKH
UniProt P08922: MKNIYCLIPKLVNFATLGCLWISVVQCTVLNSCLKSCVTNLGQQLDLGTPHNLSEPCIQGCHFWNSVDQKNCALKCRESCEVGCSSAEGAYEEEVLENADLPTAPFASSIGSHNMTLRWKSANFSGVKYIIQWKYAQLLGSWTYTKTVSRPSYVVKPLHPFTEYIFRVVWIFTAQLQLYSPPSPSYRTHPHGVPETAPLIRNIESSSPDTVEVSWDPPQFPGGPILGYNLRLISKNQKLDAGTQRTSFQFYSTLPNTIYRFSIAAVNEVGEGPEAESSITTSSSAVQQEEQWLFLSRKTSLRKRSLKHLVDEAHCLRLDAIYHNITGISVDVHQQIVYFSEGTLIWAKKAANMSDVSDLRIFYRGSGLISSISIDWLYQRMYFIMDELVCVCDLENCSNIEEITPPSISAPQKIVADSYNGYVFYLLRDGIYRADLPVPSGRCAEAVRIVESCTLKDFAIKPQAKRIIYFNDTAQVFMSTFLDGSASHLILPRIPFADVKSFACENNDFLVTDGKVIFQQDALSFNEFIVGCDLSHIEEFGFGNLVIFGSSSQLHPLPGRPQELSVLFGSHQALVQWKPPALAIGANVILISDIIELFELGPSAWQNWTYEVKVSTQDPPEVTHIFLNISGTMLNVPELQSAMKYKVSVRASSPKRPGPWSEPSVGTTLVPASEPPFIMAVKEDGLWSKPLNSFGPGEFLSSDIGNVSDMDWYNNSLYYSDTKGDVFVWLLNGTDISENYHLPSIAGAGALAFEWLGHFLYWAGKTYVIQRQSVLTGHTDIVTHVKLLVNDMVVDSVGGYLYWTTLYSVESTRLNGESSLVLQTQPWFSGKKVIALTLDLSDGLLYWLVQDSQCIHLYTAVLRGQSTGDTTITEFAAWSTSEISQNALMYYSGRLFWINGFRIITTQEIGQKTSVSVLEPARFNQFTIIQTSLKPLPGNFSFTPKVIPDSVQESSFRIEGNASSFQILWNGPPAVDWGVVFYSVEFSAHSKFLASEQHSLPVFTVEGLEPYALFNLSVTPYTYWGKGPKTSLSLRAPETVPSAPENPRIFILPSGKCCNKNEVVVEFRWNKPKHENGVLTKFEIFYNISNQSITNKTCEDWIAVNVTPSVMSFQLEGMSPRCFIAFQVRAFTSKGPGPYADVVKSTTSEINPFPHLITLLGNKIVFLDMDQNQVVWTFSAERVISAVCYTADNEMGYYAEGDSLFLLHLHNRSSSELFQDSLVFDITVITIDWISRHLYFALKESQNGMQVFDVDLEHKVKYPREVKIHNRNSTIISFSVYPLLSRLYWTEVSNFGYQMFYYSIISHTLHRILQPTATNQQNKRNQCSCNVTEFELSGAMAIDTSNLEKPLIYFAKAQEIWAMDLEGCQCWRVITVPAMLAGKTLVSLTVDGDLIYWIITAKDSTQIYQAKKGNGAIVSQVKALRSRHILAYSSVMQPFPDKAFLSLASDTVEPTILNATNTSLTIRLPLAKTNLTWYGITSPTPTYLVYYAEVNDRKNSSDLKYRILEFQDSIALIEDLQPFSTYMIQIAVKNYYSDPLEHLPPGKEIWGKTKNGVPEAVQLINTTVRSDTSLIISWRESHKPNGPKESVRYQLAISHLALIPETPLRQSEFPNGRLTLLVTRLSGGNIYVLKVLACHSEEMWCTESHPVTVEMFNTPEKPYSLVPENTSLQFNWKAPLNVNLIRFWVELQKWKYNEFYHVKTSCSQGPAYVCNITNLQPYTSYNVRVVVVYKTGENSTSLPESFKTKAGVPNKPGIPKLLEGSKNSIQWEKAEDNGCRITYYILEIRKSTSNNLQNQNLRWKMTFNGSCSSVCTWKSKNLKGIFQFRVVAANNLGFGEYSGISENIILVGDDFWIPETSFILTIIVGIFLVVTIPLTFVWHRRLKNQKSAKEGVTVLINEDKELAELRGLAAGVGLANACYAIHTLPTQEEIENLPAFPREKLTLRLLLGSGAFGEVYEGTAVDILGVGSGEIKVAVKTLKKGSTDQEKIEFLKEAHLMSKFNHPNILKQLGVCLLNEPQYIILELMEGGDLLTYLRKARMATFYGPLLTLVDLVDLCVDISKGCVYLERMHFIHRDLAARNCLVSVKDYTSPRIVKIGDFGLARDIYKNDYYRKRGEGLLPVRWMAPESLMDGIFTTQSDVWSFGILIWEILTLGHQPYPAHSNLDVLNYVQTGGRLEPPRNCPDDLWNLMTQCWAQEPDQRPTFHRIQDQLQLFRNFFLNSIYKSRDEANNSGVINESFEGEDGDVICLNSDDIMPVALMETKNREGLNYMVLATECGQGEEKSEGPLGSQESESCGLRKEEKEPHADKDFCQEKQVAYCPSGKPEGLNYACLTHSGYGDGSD
UniProt Q5VTR2, whole entry, looked up: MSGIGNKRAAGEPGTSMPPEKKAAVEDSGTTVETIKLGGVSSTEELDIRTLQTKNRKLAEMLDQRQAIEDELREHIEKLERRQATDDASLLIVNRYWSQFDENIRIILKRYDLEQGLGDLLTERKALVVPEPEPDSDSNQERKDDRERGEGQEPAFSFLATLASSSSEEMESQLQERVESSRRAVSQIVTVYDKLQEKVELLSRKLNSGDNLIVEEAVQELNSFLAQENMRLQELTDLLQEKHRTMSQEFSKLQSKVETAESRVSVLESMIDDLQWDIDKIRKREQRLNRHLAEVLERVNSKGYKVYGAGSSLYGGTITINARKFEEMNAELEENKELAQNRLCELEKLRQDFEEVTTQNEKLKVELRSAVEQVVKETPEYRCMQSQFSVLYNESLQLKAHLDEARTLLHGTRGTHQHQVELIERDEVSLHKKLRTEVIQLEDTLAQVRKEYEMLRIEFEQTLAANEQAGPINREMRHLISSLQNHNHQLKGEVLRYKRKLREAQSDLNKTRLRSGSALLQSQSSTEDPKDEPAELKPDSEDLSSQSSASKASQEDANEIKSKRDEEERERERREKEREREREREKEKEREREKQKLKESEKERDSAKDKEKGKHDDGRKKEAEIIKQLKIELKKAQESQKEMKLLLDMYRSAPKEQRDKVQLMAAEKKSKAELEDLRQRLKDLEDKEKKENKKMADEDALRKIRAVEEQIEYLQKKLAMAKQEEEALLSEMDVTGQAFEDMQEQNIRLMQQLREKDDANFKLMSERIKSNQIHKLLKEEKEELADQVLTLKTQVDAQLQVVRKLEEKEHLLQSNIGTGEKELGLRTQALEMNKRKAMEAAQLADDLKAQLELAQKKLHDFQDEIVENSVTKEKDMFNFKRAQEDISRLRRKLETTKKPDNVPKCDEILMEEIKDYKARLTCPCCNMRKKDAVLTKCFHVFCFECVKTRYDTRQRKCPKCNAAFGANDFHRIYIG
UniProt O15541: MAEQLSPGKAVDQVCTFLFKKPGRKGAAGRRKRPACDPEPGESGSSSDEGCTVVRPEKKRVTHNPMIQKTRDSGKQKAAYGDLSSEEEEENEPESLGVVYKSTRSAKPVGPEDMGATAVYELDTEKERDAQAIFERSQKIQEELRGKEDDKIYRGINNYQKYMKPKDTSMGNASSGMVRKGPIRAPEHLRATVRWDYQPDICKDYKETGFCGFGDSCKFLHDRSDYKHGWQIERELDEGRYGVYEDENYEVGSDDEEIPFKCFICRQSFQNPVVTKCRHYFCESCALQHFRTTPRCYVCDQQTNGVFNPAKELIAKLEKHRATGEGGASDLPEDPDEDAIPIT
UniProt Q96BH1: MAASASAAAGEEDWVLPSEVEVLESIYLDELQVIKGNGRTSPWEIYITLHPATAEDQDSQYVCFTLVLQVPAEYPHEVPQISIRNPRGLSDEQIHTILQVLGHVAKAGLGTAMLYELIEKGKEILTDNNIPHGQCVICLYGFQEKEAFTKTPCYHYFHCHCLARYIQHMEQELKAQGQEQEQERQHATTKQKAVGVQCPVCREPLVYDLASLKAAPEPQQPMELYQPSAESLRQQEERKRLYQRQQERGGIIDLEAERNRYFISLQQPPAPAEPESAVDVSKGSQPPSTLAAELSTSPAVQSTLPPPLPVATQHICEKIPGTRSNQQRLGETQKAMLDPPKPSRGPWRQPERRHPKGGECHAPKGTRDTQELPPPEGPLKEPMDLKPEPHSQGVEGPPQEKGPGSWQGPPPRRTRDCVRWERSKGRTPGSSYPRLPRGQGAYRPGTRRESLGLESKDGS
UniProt O43353, whole entry, looked up: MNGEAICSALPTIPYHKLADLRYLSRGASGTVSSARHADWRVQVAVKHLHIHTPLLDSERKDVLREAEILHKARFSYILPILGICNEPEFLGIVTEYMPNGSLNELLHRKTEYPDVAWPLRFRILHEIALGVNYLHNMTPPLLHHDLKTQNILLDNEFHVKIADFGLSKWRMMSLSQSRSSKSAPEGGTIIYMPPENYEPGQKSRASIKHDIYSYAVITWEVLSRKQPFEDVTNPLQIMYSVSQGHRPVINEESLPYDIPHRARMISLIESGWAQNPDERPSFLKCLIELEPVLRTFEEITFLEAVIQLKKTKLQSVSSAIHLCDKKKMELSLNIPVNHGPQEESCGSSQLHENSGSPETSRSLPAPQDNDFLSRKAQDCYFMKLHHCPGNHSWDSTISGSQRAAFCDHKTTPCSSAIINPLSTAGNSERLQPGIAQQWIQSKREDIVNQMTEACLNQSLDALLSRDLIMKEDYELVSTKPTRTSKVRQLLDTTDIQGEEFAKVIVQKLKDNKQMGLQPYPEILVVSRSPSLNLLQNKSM
UniProt P27694, whole entry, looked up: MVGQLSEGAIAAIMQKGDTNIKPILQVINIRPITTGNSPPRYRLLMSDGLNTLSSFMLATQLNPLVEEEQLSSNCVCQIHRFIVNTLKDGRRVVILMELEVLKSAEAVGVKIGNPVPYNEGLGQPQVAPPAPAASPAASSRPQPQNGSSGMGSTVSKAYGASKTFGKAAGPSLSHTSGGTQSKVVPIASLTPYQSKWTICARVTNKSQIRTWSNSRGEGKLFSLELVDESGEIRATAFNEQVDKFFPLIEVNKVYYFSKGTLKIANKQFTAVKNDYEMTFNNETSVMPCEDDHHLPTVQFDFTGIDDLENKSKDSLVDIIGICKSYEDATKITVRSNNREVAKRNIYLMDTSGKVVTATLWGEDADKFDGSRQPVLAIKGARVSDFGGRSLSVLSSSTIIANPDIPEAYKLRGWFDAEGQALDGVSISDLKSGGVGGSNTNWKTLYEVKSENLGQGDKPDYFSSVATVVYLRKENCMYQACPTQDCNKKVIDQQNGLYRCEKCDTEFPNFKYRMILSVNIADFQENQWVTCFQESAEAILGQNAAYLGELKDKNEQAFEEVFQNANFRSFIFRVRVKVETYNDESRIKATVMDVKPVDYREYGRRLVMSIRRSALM

[2] = compound: CS(=O)(=O)N1CCN(Cc2cc3nc(-c4cccc5[nH]ncc45)nc(N4CCOCC4)c3s2)CC1 [pictilisib]
Summary of the method: as §1

[3] = compound: C[C@@H](Oc1cc(-c2cnn(C3CCNCC3)c2)cnc1N)c1c(Cl)ccc(F)c1Cl [crizotinib]
Summary of the method: as §1

[4] = compound: C[C@H](C1=CC=C(C=C1)C(=O)NC2=C3C=CNC3=NC=C2)N
Summary of the method: as §1

[5] = compound: C[C@H](Nc1ncnc2nc[nH]c12)c1cc2cccc(Cl)c2c(=O)n1-c1ccccc1 [duvelisib]
Summary of the method: as §1

[6] = compound: Cc1cc(Nc2cc(CN3CCOCC3)c3nc(C)c(Cc4ccc(Cl)cc4F)n3n2)n[nH]1 [gandotinib]
Summary of the method: as §1

[7] = compound: Cc1cc(Nc2cc(N3CCN(C)CC3)nc(Sc3ccc(NC(=O)C4CC4)cc3)n2)n[nH]1 [tozasertib]
Summary of the method: as §1

[8] = compound: Cc1ccc(-n2nc(C(C)(C)C)cc2NC(=O)Nc2ccc(OCCN3CCOCC3)c3ccccc23)cc1 [doramapimod]
Summary of the method: as §1

[9] = compound: Cc1ccc(NC(=O)c2ccc(CN3CC[C@H](N(C)C)C3)c(C(F)(F)F)c2)cc1Nc1nccc(-c2cncnc2)n1 [bafetinib]
Summary of the method: as §1

[10] = compound: Cc1cccc(CC(=O)N2CCc3c2ccc(-c2cn(C)c4ncnc(N)c24)c3F)n1
Summary of the method: as §1

[11] = compound: Cc1cn(-c2cc(NC(=O)c3ccc(C)c(Nc4nccc(-c5cccnc5)n4)c3)cc(C(F)(F)F)c2)cn1 [nilotinib]
Summary of the method: as §1

[12] = compound: Cc1nc(Nc2n[nH]c3c2CN(C(=O)N[C@H](CN(C)C)c2ccccc2)C3(C)C)c2sccc2n1
Summary of the method: as §1

[13] = compound: Cc1nc(Nc2ncc(C(=O)Nc3c(C)cccc3Cl)s2)cc(N2CCN(CCO)CC2)n1 [dasatinib]
Summary of the method: as §1

[14] = compound: Cc1ncc(-c2ccnc(Nc3ccc(S(C)(=O)=O)cc3)n2)n1C(C)C
Summary of the method: as §1

[15] = compound: Cn1cc(-c2ccc3c(c2)CCN3C(=O)Cc2cccc(C(F)(F)F)c2)c2c(N)ncnc21
Summary of the method: as §1

[16] = compound: Cn1cc(CNCC2CCN(c3ncc(C(=O)NO)cn3)CC2)c2ccccc21 [quisinostat]
Summary of the method: as §1

[17] = compound: Cn1cncc1[C@@](N)(c1ccc(Cl)cc1)c1ccc2c(c1)c(-c1cccc(Cl)c1)cc(=O)n2C [tipifarnib]
Summary of the method: as §1

[18] = compound: NC(=O)Nc1cc(-c2cccc(F)c2)sc1C(=O)N[C@H]1CCCNC1
Summary of the method: as §1

[19] = compound: NC(=O)c1cnc(N[C@@H]2CCCC[C@@H]2N)nc1Nc1cccc(-n2nccn2)c1
Summary of the method: as §1

[20] = compound: NC1(c2ccc(-c3nc4ccn5c(=O)[nH]nc5c4cc3-c3ccccc3)cc2)CCC1
Summary of the method: as §1

Measured: log2 fold change

RPL29 (UniProt P47914)
inactive: [1] -0.001 | [2] -0.032 | [3] 0.06 | [4] 0.107 | [5] 0.017 | [6] -0.057 | [7] -0.009 | [8] -0.071 | [9] 0.04 | [10] -0.113 | [11] 0.032 | [12] 0.017 | [13] -0.004 | [14] -0.011 | [15] -0.032 | [16] 0.048 | [17] 0.098 | [18] 0.039 | [19] -0.02 | [20] -0.059

RNASET2 (UniProt O00584)
inactive: [1] 0.005 | [2] -0.033 | [3] 0.003 | [4] -0.02 | [5] 0.02 | [6] 0.022 | [7] -0.013 | [8] -0.034 | [9] 0.039 | [10] -0.021 | [11] 0.029 | [12] -0.005 | [13] 0.013 | [14] -0.031 | [15] -0.039 | [16] -0.002 | [17] 0.008 | [18] -0.016 | [19] -0.018 | [20] 0.005

ROS1 (UniProt P08922)
inactive: [1] -0.155 | [2] -0.2 | [3] 0.011 | [4] -0.331 | [5] -0.048 | [6] 0.059 | [7] -0.028 | [8] 0.12 | [9] -0.214 | [10] 0.199 | [11] -0.166 | [12] 0.054 | [13] 0.083 | [14] 0.045 | [15] 0.08 | [16] -0.109 | [17] 0.02 | [18] 0.086 | [19] -0.06

Random excerpt: two entries already listed, in no set order.
RNASET2 (UniProt O00584)
inactive: [1] 0.005 | [2] -0.033 | [3] 0.003 | [4] -0.02 | [5] 0.02 | [6] 0.022 | [7] -0.013 | [8] -0.034 | [9] 0.039 | [10] -0.021 | [11] 0.029 | [12] -0.005 | [13] 0.013 | [14] -0.031 | [15] -0.039 | [16] -0.002 | [17] 0.008 | [18] -0.016 | [19] -0.018 | [20] 0.005

RPL29 (UniProt P47914)
inactive: [1] -0.001 | [2] -0.032 | [3] 0.06 | [4] 0.107 | [5] 0.017 | [6] -0.057 | [7] -0.009 | [8] -0.071 | [9] 0.04 | [10] -0.113 | [11] 0.032 | [12] 0.017 | [13] -0.004 | [14] -0.011 | [15] -0.032 | [16] 0.048 | [17] 0.098 | [18] 0.039 | [19] -0.02 | [20] -0.059

Next part

RPL31 (UniProt P62899)
inactive: [1] -0.01 | [2] 0.009 | [3] 0.016 | [4] -0.006 | [5] 0.004 | [6] 0.005 | [7] -0.006 | [8] -0.041 | [9] -0.023 | [10] 0.029 | [11] 0.007 | [12] -0.034 | [13] 0.046 | [14] -0.036 | [15] -0.038 | [16] 0.043 | [17] 0.021 | [18] -0.004 | [19] -0.018 | [20] 0.005

RNF20 (UniProt Q5VTR2)
inactive: [1] -0.007 | [2] -0.003 | [3] 0.005 | [4] -0.053 | [5] 0.009 | [6] -0.006 | [7] -0.012 | [8] 0.001 | [9] -0.001 | [10] 0.02 | [11] 0.019 | [12] -0.044 | [13] -0.016 | [14] 0.002 | [15] 0.005 | [16] -0.007 | [17] -0.001 | [18] 0.011 | [19] 0.001 | [20] 0.023

RPL23A (UniProt P62750)
inactive: [1] -0.021 | [2] 0.016 | [3] 0.025 | [4] 0.186 | [5] 0.004 | [6] -0.095 | [7] -0.014 | [8] -0.042 | [9] 0.016 | [10] -0.129 | [11] 0.028 | [12] -0.036 | [13] 0.008 | [14] 0.029 | [15] 0.001 | [16] 0.073 | [17] 0.019 | [18] 0.028 | [19] -0.011 | [20] 0.029

RNF113A (UniProt O15541)
inactive: [1] 0.012 | [2] 0.021 | [3] 0.024 | [4] -0.072 | [5] -0.009 | [6] 0.068 | [7] 0.002 | [8] 0.016 | [9] 0 | [10] 0.034 | [11] 0.003 | [12] -0.004 | [13] -0.015 | [14] 0.007 | [15] 0.04 | [16] 0.063 | [17] -0.019 | [18] -0.068 | [19] -0.005 | [20] -0.002

RPL18 (UniProt Q07020)
inactive: [1] 0.008 | [2] 0.061 | [3] -0.007 | [4] 0.037 | [5] 0.036 | [6] -0.034 | [7] 0.007 | [8] -0.029 | [9] 0.04 | [10] 0.024 | [11] -0.019 | [12] 0.017 | [13] 0.049 | [14] -0.032 | [15] 0.01 | [16] 0.017 | [17] 0.005 | [18] -0.028 | [19] -0.015 | [20] -0.019

RNF25 (UniProt Q96BH1)
inactive: [1] -0.006 | [2] 0.014 | [3] 0.015 | [4] -0.049 | [5] 0.008 | [6] 0.046 | [7] -0.031 | [8] -0.018 | [9] -0.014 | [10] -0.004 | [11] 0.036 | [12] -0.029 | [13] -0.017 | [14] 0.004 | [15] -0.006 | [16] 0.005 | [17] 0.012 | [18] -0.014 | [19] 0.014 | [20] -0.063

RIPK2 (UniProt O43353)
inactive: [1] 0.019 | [2] -0.088 | [3] 0.029 | [4] 0.105 | [5] -0.001 | [6] -0.033 | [7] 0 | [8] 0.06 | [9] 0.046 | [10] -0.095 | [11] 0.068 | [12] 0.009 | [13] 0 | [14] 0.025 | [15] 0.077 | [16] -0.021 | [17] -0.022 | [18] -0.036 | [19] -0.034 | [20] 0.006

RPL35 (UniProt P42766)
inactive: [1] -0.144 | [2] 0.002 | [3] -0.018 | [4] -0.034 | [5] 0.024 | [6] 0.031 | [7] -0.028 | [8] -0.11 | [9] -0.035 | [10] 0.004 | [11] -0.011 | [12] 0.038 | [13] -0.03 | [14] -0.01 | [15] -0.026 | [16] -0.017 | [17] -0.015 | [18] 0.037 | [19] -0.043 | [20] -0.038

RPL14 (UniProt P50914)
inactive: [1] -0.016 | [2] -0.007 | [3] 0.039 | [4] 0.04 | [5] 0.011 | [6] -0.036 | [7] -0.065 | [8] -0.129 | [9] 0.033 | [10] -0.022 | [11] -0.014 | [12] 0.015 | [13] 0.006 | [14] -0.001 | [15] -0.004 | [16] 0.143 | [17] -0.021 | [18] -0.041 | [19] 0.034 | [20] 0.001

RPL18A (UniProt Q02543)
inactive: [1] -0.014 | [2] 0.027 | [3] 0.043 | [4] 0.178 | [5] 0.045 | [6] -0.034 | [7] -0.021 | [8] -0.064 | [9] 0.041 | [10] -0.051 | [11] 0.013 | [12] -0.019 | [13] 0.034 | [14] -0.016 | [15] -0.007 | [16] 0.099 | [17] -0.011 | [18] -0.037 | [19] 0 | [20] 0

RPA1 (UniProt P27694)
inactive: [1] -0.012 | [2] -0.032 | [3] -0.011 | [4] 0.116 | [5] 0.001 | [6] -0.056 | [7] 0.007 | [8] 0 | [9] -0.036 | [10] -0.075 | [11] -0.014 | [12] 0.018 | [13] 0.014 | [14] -0.007 | [15] -0.007 | [16] 0.02 | [17] -0.008 | [18] -0.004 | [19] 0.006 | [20] -0.008

RPL26 (UniProt P61254)
inactive: [1] 0.029 | [2] -0.006 | [3] 0.112 | [4] 0.343 | [5] -0.029 | [6] -0.3 | [7] 0.01 | [8] -0.089 | [9] 0.08 | [10] -0.351 | [11] 0.038 | [12] 0.029 | [13] 0.03 | [14] 0.202 | [15] -0.062 | [16] 0.125 | [17] -0.031 | [18] -0.037 | [19] 0.006 | [20] -0.147

Source: the supplement of paper PMC10849652
